This note sets out measurements from patent EP0888374B1.

Amino acid sequences for entries named in this document (tags omitted). A change or cut given only in a name is not applied to a line headed by its entry. Residues count along the entry.
UniProt P02745: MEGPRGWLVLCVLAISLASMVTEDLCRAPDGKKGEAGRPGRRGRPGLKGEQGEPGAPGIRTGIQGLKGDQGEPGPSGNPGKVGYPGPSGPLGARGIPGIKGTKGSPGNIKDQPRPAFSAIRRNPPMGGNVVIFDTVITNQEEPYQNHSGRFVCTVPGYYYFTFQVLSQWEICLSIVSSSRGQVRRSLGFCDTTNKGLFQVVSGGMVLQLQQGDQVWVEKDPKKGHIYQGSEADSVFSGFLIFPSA
UniProt P02743, residues 20-223: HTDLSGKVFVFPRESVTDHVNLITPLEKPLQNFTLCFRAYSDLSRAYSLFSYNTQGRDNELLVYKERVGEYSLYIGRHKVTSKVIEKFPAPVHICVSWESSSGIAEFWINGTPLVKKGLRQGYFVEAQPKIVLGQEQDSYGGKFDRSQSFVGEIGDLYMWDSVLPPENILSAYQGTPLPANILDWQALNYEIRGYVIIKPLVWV

The assay concerns the target Complement System Protein C1q (UniProt P02745). The assay is described as follows: nitrocellulose filter assay; competition with 32P-RNA ligand #50 for C1q.

No constants are given. Whether binding was seen depends on the method and setting. Some binding calls cover weakened binding; strength is not graded here.

Turning to “serum amyloid protein (SAP) (from UniProt P02743 20-223) (other; other documents disagree on this pair)”, the binding result is recorded as “binds”.
